Data taken from PMC6952976.
No constants are given. Whether binding was seen depends on the method and setting. Binding seen in cells or lysates may run through a third protein. These calls come from enrichment with a bait or labelling near it, and not all partners need be listed. For some assays here: No binding means not detected with the bait.

Chains of the proteins cited; added tags and fusions are not shown.
UniProt P42930: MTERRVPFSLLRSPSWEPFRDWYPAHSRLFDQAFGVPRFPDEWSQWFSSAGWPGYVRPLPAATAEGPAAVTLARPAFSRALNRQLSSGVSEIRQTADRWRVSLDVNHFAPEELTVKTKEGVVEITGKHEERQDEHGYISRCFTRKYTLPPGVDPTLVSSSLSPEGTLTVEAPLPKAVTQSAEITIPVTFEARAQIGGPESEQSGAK

Assays:
[1] = biological target: T1, adenine nucleotide translocase 1 (rat (endogenous in neonatal rat cardiomyocytes)) (UniProt Q05962); test: affinity purification with mass spectrometry; ANT-specific antibody precipitates from lysates of normoxic WT or ANT1-TG cardiomyocytes; digestion with trypsin on the beads, LC-ESI-MS/MS; spectral counts of unspecific IgGs subtracted
T1 sequence: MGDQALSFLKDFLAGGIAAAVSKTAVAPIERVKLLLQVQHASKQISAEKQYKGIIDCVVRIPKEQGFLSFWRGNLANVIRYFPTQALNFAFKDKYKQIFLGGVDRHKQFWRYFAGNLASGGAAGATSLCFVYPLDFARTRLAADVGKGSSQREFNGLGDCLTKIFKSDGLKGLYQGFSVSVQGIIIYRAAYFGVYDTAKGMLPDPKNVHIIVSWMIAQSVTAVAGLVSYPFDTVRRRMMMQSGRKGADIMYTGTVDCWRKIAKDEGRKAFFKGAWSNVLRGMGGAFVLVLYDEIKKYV

[2] = biological target: T1, adenine nucleotide translocase 1 (rat (endogenous in neonatal rat cardiomyocytes)); test: condition: only cardiomyocytes kept under hypoxic conditions (24 h, 1% O2); affinity purification with mass spectrometry; ANT-specific antibody precipitates from lysates of hypoxic (24 h, 1% O2) WT or ANT1-TG cardiomyocytes; digestion with trypsin on the beads, LC-ESI-MS/MS

binding [1]: binds
binding [2]: no binding
Substance: heat shock protein 27 (from UniProt P42930 1-206)
